Results are given in words; binding and its absence hold for the method and conditions named. In cells and extracts the contact can be indirect. These calls come from enrichment with a bait or labelling near it, and not all partners need be listed.
B1: Plakophilin 2 (protein, UniProt Q99959 1-881)
chain: MAAPGAPAEYGYIRTVLGQQILGQLDSSSLALPSEAKLKLAGSSGRGGQTVKSLRIQEQVQQTLARKGRSSVGNGNLHRTSSVPEYVYNLHLVENDFVGGRSPVPKTYDMLKAGTTATYEGRWGRGTAQYSSQKSVEERSLRHPLRRLEISPDSSPERAHYTHSDYQYSQRSQAGHTLHHQESRRAALLVPPRYARSEIVGVSRAGTTSRQRHFDTYHRQYQHGSVSDTVFDSIPANPALLTYPRPGTSRSMGNLLEKENYLTAGLTVGQVRPLVPLQPVTQNRASRSSWHQSSFHSTRTLREAGPSVAVDSSGRRAHLTVGQAAAGGSGNLLTERSTFTDSQLGNADMEMTLERAVSMLEADHMLPSRISAAATFIQHECFQKSEARKRVNQLRGILKLLQLLKVQNEDVQRAVCGALRNLVFEDNDNKLEVAELNGVPRLLQVLKQTRDLETKKQITDHTVNLRSRNGWPGAVAHACNPSTLGGQGGRITRSGVRDQPDQHGLLWNLSSNDKLKNLMITEALLTLTENIIIPFSGWPEGDYPKANGLLDFDIFYNVTGCLRNMSSAGADGRKAMRRCDGLIDSLVHYVRGTIADYQPDDKATENCVCILHNLSYQLEAELPEKYSQNIYIQNRNIQTDNNKSIGCFGSRSRKVKEQYQDVPMPEEKSNPKGVEWLWHSIVIRMYLSLIAKSVRNYTQEASLGALQNLTAGSGPMPTSVAQTVVQKESGLQHTRKMLHVGDPSVKKTAISLLRNLSRNLSLQNEIAKETLPDLVSIIPDTVPSTDLLIETTASACYTLNNIIQNSYQNARDLLNTGGIQKIMAISAGDAYASNKASKAASVLLYSLWAHTELHHAYKKAQFKKTDFVNSRTAKAYHSLKD

By UniProt entry, the sequences of proteins in these tests, tags left out. Residues count along the entry.
UniProt P35222: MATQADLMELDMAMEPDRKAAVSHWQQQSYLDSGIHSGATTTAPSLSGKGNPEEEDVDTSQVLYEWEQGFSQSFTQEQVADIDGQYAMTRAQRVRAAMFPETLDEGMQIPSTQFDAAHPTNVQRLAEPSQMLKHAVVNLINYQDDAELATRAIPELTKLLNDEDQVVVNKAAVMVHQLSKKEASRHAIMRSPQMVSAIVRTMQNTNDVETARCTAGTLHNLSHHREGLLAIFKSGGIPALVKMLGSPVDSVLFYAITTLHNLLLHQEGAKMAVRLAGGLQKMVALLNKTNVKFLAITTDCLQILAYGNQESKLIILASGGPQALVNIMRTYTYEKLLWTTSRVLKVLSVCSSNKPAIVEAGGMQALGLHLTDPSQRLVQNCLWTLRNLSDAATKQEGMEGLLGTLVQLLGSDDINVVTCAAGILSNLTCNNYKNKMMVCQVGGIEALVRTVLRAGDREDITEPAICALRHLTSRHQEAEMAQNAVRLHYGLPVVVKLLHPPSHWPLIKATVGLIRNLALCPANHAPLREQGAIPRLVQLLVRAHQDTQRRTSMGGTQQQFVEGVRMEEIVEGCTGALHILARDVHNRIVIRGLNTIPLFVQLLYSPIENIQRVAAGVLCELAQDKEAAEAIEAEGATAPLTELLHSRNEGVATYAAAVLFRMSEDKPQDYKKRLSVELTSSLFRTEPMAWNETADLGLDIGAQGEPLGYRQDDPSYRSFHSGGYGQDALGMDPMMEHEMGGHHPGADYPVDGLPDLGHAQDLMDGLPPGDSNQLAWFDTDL
UniProt P07305: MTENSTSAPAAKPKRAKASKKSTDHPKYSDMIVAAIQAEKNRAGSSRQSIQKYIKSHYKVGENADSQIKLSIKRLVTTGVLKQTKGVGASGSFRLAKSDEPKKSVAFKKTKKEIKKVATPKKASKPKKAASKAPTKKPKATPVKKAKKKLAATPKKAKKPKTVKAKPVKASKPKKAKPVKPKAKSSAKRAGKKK
UniProt P56199, residues 29-1179: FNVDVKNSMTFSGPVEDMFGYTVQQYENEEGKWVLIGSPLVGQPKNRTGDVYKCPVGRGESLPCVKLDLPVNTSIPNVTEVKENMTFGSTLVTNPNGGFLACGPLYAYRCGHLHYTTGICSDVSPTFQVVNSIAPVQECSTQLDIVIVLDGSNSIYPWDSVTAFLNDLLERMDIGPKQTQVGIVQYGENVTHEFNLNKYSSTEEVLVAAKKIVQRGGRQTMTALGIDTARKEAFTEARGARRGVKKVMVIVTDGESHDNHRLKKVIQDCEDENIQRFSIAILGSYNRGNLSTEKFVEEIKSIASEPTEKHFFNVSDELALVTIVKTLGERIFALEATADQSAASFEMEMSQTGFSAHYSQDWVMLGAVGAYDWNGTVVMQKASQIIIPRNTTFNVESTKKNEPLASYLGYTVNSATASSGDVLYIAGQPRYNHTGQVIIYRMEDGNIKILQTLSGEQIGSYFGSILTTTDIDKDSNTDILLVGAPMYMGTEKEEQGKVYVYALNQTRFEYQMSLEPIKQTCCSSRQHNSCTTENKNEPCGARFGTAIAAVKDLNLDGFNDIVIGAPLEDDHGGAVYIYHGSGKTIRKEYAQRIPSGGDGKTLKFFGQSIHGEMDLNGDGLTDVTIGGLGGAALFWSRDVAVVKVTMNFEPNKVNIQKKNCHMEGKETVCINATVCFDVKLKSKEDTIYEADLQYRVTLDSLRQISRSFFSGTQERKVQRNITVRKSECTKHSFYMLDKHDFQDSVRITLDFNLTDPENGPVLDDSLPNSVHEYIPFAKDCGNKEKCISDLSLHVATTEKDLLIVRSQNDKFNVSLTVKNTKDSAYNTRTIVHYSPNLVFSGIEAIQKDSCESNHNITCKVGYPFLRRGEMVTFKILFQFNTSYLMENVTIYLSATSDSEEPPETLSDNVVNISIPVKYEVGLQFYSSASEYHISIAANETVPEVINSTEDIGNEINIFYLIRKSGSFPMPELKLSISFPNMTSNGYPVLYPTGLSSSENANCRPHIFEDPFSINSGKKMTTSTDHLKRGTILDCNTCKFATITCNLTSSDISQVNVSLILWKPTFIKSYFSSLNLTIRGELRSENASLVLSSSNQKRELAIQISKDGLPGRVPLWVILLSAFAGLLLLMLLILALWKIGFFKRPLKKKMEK
UniProt O14901: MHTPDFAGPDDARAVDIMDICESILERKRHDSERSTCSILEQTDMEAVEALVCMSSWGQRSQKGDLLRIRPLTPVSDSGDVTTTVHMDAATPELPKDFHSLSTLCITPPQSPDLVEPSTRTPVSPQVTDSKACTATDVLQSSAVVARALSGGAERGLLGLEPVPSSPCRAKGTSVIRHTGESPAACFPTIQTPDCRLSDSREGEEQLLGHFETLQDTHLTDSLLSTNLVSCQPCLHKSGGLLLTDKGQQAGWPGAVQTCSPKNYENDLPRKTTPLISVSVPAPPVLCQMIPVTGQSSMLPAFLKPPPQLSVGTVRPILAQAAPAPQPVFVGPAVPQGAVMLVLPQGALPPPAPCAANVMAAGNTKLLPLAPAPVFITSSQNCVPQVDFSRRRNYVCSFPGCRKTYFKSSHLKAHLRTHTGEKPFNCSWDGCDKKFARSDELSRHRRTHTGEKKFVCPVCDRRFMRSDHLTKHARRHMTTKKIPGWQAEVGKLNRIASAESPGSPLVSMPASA
UniProt P08727: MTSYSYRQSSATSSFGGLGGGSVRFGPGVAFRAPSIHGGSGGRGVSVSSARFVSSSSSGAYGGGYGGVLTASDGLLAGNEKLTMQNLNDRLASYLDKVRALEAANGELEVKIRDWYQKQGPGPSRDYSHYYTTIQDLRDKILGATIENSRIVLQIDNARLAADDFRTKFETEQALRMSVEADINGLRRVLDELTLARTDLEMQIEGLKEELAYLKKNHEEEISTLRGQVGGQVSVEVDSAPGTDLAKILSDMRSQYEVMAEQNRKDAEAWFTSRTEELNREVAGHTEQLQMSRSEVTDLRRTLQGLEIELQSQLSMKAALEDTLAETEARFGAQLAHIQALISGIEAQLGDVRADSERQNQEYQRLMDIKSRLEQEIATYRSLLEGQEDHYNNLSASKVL
UniProt Q68CZ2: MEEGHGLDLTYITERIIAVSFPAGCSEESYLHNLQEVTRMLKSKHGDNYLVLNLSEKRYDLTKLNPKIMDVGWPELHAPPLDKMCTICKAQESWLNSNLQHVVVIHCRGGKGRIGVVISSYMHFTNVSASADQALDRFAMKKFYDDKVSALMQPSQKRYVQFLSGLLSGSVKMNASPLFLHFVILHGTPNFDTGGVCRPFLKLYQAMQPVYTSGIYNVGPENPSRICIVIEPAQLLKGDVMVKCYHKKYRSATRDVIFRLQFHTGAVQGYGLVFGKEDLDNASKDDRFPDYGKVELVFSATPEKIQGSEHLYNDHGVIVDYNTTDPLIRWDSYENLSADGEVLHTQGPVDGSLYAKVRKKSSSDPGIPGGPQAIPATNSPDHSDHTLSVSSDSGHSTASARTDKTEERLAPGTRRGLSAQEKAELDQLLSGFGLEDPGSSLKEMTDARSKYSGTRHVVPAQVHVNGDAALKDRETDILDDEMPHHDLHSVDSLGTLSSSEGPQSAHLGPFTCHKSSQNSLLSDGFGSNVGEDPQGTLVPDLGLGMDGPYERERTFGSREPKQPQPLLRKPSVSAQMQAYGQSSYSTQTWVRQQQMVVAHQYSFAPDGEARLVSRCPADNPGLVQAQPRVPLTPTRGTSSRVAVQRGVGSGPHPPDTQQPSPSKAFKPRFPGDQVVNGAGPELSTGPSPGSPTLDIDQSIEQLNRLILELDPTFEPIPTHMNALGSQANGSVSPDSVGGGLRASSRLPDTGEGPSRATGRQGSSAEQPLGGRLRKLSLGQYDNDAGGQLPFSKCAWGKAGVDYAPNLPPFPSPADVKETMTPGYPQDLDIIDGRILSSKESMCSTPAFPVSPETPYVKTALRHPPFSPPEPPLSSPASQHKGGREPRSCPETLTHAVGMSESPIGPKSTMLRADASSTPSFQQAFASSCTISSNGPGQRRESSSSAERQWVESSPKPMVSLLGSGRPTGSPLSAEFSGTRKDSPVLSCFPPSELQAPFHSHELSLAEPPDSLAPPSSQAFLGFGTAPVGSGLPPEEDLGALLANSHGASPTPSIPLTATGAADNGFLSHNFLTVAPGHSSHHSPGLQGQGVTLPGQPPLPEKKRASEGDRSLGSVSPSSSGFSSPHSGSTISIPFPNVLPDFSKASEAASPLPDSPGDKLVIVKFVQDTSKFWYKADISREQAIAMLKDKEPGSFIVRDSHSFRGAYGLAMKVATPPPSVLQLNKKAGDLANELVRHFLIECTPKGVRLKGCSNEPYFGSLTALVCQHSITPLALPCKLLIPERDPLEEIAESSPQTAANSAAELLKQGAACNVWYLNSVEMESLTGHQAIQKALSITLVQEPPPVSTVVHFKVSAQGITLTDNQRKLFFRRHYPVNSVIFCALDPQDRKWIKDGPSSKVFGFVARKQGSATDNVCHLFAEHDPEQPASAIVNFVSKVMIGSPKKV
UniProt P21675: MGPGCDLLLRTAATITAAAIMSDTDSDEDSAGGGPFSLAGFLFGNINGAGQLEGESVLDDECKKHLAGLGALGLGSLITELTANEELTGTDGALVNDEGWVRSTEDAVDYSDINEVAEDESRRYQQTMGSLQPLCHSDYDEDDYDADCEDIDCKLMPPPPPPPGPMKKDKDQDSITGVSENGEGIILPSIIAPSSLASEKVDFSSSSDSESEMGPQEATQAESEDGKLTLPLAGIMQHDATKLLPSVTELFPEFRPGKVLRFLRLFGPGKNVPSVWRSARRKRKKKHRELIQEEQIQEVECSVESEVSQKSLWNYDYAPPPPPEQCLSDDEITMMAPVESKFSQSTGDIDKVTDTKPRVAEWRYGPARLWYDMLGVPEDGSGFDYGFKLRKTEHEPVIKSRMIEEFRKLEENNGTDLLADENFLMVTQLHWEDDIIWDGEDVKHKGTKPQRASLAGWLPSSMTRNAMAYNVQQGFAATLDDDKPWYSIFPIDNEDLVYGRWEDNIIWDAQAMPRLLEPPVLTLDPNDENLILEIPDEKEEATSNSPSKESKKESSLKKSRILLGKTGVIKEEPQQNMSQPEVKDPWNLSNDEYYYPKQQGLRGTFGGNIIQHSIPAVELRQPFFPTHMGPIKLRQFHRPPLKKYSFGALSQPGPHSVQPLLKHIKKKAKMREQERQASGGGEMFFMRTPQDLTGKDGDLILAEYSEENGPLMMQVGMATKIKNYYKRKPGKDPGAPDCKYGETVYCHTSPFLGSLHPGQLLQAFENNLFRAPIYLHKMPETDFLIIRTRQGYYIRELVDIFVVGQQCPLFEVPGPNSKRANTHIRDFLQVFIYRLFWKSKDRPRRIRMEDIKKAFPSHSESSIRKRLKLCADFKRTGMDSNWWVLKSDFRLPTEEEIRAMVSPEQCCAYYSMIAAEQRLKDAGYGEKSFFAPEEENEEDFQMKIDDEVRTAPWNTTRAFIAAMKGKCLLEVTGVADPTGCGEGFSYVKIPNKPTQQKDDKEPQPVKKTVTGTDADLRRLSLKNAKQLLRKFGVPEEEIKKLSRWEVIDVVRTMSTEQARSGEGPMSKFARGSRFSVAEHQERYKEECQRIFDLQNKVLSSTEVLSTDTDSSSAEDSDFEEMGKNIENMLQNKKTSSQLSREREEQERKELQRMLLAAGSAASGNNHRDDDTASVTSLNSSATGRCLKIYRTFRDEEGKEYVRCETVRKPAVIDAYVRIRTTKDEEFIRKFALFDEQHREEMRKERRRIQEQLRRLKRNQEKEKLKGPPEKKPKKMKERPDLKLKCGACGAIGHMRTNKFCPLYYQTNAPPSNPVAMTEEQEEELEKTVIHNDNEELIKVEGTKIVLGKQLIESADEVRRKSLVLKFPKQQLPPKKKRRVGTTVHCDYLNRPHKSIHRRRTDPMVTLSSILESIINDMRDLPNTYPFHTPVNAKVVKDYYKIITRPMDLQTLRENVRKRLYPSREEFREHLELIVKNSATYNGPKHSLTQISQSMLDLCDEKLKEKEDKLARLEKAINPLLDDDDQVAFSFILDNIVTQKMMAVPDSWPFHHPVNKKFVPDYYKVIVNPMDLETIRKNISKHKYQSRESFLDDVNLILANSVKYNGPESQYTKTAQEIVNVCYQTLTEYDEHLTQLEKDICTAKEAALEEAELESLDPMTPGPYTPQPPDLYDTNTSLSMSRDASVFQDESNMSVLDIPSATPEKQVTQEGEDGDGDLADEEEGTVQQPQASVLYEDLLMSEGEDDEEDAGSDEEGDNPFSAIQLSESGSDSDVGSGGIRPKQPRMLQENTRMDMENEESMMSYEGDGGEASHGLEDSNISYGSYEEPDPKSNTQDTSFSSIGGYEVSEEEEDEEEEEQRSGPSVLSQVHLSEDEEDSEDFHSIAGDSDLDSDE

target: β-catenin (human (endogenous in BGC-823)) (UniProt P35222); experiment: affinity purification with mass spectrometry; Co-IP/MS: BGC-823 cells lysed in IP lysis buffer, anti-CTNNB1 antibody (1:50) at 4°C overnight, washed three times, SDS-PAGE, silver staining, gel strips analysed by LC-MS/MS; the table's caption speaks of nuclear fractions

binding	Molecule
binds	Histone H1.0 (from UniProt P07305 1-194)
binds	Integrin alpha-1 (from UniProt P56199 29-1179)
binds	KLF Transcription Factor 11 (from UniProt O14901 1-512)
binds	Keratin, type I cytoskeletal 19 (from UniProt P08727 1-400)
binds	Leucine-rich repeat-containing G-protein coupled receptor 4 (from UniProt Q9BXB1 25-951)
binds	Sickle tail protein homolog (from UniProt Q5T5P2 1-1943)
binds	Tensin-3 (from UniProt Q68CZ2 1-1445)
binds	Transcription initiation factor TFIID subunit 1 (from UniProt P21675 1-1893)
binds	B1

Source: paper PMC10655684
